Results as given in patent US20120040998A1, “2-ALKYL PIPERIDINE MGLUR5 RECEPTOR MODULATORS” (priority 2009, published 2012).
Some of these results come from one statement about several compounds together.

By UniProt entry, the sequences of proteins in these tests, tags left out. Residues count along the entry.
UniProt P41594, 21-1180 isoform P41594-2 limits assumed: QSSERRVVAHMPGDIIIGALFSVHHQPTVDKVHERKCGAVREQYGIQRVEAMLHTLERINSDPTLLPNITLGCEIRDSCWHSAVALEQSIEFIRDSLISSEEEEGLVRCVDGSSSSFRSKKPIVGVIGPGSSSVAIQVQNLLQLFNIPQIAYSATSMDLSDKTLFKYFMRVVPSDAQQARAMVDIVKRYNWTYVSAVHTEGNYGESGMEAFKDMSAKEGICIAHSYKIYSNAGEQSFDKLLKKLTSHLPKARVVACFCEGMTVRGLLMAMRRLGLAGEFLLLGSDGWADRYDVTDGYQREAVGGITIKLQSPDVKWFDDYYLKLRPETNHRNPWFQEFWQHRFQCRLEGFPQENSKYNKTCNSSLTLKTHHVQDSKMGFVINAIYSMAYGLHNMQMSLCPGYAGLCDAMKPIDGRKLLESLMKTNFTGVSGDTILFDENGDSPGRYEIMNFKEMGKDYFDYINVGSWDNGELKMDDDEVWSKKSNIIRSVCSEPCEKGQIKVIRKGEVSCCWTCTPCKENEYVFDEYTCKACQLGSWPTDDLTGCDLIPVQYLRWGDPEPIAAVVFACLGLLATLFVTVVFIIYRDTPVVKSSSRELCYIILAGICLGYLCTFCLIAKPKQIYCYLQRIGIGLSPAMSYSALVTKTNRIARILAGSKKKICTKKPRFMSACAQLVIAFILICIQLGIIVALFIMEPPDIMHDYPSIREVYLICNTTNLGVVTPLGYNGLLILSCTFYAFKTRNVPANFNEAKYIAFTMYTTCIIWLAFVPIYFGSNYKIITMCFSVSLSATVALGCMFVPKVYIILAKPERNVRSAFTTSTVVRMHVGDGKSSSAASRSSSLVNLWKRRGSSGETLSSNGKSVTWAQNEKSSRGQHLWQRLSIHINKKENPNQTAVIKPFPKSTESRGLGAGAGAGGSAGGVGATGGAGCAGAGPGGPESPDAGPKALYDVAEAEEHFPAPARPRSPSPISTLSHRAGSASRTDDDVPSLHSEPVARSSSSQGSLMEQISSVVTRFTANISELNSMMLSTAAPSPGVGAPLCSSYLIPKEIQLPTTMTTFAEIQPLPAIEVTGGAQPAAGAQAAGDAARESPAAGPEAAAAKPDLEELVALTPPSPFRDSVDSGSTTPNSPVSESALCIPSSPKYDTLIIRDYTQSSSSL

Biological target: T1, human mGluR5A (Homo sapiens, UniProt P41594)
T1 construct: expressed in transfected cells
Experiment: FLIPR assay, glutamate shift (fold-shift of glutamate EC50 at a single compound concentration)
Format: cell-based
Settings: at 10 μM compound; EC50 glutamate+DMSO / EC50 glutamate+compound

Glutamate shift, at least 7 ×:
C[C@@H]1CC[C@H](c2noc(-c3ccc(F)cc3)n2)CN1C(=O)c1ccc(F)cc1 [Example 1-16, (2R,5S)-1-(4-fluorobenzoyl)-5-[5-(4-fluorophenyl)-1,2,4-oxadiazol-3-yl]-2-methylpiperidine]
C[C@H]1CC[C@@H](c2noc(-c3cc(Cl)c[nH]3)n2)CN1C(=O)c1ccc(F)cc1 [Example 2-3, (2S,5R)-5-[5-(4-chloro-1H-pyrrol-2-yl)-1,2,4-oxadiazol-3-yl]-1-(4-fluorobenzoyl)-2-methylpiperidine]
C[C@@H]1CC[C@H](c2noc(-c3cc(Cl)c[nH]3)n2)CN1C(=O)c1ccc(F)cc1 [Example 2-4, (2R,5S)-5-[5-(4-chloro-1H-pyrrol-2-yl)-1,2,4-oxadiazol-3-yl]-1-(4-fluorobenzoyl)-2-methylpiperidine]
C[C@@H]1CC[C@H](c2noc(-c3ccc(F)cn3)n2)CN1C(=O)c1ccc(F)cc1 [Example 4-4, 5-Fluoro-2-{3-[(3S,6R)-1-(4-fluorobenzoyl)-6-methylpiperidin-3-yl]-1,2,4-oxadiazol-5-yl}pyridine]
C[C@@H]1CC[C@H](c2nc(-c3cc(Cl)c[nH]3)no2)CN1C(=O)c1ccc(F)cc1 [Example 5-5, (2R,5S)-5-[3-(4-Chloro-1H-pyrrol-2-yl)-1,2,4-oxadiazol-5-yl]-1-(4-fluorobenzoyl)-2-methylpiperidine]
C[C@@H]1CC[C@H](c2noc(-c3cc(Cl)c[nH]3)n2)CN1C(=O)c1ccc(F)nc1 [Example 9-9, 5-({(2R,5S)-5-[5-(4-chloro-1H-pyrrol-2-yl)-1,2,4-oxadiazol-3-yl]-2-methylpiperidin-1-yl}carbonyl)-2-fluoropyridine]
C[C@@H]1CC[C@H](c2nc(-c3cc(Cl)c[nH]3)no2)CN1C(=O)c1ccc(F)nc1 [Example 9-18, 5-({(2R,5S)-5-[3-(4-chloro-1H-pyrrol-2-yl)-1,2,4-oxadiazol-5-yl]-2-methylpiperidin-1-yl}carbonyl)-2-fluoropyridine]
COc1cc(C(=O)N2C[C@@H](c3nc(-c4cc(Cl)c[nH]4)no3)CC[C@H]2C)ccn1 [Example 9-22, 4-({(2R,5S)-5-[3-(4-chloro-1H-pyrrol-2-yl)-1,2,4-oxadiazol-5-yl]-2-methylpiperidin-1-yl}carbonyl)-2-methoxypyridine]
